Paper PMC11933671
Results are given in words; binding and its absence hold for the method and conditions named. Binding seen in cells or lysates may run through a third protein. These calls come from enrichment with a bait or labelling near it, and not all partners need be listed. For part of these data: No binding means not detected with the bait. For part of these data: Where a sequence is shown, tags or fusion partners need not be part of it.

The chains behind the UniProt entries cited, without tags or fusion partners. Where a name states a change or a piece, a line headed by the entry shows the natural chain unless it says otherwise.
UniProt A0A509AMH5: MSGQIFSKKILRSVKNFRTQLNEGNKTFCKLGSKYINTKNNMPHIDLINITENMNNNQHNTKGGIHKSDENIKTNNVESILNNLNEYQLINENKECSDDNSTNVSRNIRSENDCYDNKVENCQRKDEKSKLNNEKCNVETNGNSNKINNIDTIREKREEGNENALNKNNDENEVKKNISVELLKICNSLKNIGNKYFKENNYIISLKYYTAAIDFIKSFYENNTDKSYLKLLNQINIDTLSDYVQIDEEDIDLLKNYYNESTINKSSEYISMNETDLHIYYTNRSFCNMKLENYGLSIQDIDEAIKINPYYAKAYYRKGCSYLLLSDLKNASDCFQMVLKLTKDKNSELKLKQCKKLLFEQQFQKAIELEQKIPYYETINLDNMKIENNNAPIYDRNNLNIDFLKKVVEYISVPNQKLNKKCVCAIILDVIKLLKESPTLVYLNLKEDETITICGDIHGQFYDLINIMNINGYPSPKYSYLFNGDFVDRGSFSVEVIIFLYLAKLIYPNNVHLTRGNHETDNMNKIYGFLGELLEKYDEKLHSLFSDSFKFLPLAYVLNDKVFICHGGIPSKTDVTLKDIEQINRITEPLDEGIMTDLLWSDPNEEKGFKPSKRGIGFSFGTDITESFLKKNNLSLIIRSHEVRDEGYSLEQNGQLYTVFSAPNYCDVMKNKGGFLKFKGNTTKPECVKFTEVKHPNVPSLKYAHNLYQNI
UniProt A0A509AMU8: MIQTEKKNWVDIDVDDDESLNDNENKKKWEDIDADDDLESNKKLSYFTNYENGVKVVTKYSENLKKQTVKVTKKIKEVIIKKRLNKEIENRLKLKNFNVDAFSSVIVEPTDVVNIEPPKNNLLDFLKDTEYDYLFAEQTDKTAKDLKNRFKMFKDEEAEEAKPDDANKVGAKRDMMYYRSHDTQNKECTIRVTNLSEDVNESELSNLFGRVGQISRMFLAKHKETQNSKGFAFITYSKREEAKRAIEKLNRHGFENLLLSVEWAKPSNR
UniProt A0A509APL0: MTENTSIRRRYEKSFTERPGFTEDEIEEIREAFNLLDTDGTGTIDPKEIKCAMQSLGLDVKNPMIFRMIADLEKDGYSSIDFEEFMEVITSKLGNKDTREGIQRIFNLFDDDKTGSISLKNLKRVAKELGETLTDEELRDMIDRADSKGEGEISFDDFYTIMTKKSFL
UniProt A0A509ASS0: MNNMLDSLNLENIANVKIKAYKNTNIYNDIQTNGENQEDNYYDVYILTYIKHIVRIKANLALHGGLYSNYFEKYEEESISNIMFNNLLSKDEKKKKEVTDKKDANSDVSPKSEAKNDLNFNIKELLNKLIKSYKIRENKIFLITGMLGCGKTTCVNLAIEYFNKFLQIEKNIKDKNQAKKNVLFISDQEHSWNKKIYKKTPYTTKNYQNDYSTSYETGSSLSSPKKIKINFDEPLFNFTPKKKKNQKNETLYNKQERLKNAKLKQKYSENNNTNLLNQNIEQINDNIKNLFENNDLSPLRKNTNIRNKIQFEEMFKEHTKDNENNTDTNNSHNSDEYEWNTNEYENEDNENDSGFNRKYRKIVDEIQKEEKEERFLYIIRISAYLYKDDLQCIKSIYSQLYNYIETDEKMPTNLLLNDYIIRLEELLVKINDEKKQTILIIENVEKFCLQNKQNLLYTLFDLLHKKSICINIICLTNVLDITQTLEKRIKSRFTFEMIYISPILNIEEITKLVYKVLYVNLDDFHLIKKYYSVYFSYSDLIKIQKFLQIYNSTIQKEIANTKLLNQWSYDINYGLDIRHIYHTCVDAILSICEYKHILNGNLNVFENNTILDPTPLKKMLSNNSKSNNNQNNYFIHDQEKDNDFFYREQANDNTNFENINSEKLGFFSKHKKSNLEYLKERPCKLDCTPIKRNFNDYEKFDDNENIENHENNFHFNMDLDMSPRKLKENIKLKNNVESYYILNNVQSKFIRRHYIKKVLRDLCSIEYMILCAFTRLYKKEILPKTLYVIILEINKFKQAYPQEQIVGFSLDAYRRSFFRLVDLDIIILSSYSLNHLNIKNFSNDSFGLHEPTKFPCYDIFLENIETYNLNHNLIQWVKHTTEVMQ
UniProt A0A509ADR3: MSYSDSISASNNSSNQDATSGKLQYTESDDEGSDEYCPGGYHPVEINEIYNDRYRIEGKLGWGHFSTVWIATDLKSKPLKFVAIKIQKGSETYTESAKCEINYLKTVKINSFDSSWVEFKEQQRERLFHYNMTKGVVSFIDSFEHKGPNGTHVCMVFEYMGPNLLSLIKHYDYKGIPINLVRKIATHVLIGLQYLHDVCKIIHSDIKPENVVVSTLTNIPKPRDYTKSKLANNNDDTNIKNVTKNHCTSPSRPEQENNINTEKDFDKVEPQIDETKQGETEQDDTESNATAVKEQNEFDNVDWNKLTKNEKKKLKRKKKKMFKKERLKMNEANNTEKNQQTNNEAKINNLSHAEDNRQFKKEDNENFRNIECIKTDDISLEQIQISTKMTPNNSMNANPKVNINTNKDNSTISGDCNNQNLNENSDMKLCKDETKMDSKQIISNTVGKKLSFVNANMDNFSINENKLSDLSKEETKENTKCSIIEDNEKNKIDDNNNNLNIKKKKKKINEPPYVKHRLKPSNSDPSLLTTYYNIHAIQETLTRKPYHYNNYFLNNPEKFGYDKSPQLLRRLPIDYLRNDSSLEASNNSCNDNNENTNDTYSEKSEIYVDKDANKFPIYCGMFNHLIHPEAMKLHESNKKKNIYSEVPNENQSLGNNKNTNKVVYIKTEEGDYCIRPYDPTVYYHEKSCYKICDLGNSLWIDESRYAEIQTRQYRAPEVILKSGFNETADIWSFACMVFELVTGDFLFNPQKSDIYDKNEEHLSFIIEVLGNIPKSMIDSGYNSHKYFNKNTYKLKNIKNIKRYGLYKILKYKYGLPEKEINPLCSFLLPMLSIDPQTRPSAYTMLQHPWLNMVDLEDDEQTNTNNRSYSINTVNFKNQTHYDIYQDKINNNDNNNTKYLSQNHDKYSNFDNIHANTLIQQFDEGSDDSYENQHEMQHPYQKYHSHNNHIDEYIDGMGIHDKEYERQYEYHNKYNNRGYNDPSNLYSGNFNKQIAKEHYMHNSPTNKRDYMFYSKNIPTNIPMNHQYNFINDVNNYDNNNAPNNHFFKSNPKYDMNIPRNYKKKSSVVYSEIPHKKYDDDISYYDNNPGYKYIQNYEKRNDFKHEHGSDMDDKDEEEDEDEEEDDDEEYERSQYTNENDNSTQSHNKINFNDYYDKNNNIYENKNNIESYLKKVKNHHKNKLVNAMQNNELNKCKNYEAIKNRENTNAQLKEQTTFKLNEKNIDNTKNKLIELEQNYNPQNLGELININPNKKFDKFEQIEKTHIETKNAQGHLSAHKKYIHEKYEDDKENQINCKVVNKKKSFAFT
UniProt A0A509ANV0: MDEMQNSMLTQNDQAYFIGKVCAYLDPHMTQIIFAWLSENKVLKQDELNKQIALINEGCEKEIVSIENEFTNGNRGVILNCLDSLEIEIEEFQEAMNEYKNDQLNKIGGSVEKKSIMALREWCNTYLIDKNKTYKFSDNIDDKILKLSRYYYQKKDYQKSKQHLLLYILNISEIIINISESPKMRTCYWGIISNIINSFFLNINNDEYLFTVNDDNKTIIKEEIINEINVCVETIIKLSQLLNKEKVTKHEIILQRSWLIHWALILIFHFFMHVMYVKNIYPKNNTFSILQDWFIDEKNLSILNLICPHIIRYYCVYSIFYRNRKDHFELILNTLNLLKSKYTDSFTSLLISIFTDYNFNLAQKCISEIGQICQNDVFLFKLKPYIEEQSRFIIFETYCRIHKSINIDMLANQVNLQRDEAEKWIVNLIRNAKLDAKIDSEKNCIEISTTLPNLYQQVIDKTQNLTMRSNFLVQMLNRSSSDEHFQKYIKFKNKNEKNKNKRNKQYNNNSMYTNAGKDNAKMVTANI
UniProt A0A509AH12: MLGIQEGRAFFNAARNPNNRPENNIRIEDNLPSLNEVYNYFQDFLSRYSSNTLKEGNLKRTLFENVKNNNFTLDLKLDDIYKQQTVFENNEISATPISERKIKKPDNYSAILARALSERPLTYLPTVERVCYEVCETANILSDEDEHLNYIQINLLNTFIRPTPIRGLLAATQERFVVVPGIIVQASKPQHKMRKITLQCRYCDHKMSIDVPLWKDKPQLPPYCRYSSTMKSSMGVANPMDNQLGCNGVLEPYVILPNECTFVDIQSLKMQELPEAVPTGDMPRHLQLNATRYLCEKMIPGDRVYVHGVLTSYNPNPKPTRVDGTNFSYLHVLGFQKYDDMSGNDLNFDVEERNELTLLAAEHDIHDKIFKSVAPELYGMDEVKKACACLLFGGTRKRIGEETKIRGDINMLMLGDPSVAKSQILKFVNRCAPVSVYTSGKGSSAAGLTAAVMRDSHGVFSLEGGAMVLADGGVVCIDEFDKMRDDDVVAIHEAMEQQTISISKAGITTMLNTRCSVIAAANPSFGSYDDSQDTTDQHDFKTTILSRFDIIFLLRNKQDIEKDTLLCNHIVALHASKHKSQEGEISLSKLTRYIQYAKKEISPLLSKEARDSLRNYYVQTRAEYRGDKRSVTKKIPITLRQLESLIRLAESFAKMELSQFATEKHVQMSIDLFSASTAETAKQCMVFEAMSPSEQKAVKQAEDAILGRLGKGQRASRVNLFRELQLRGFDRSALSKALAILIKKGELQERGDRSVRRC
UniProt A0A509AJ64: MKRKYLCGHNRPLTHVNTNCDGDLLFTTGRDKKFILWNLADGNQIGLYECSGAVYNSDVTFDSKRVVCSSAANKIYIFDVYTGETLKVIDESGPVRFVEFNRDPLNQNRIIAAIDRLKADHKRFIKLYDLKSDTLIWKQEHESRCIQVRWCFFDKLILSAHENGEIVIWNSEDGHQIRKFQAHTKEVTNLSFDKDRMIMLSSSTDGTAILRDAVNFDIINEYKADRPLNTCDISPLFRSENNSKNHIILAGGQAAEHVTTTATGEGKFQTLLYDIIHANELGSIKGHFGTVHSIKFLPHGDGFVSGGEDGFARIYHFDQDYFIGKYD
UniProt A0A509APU6: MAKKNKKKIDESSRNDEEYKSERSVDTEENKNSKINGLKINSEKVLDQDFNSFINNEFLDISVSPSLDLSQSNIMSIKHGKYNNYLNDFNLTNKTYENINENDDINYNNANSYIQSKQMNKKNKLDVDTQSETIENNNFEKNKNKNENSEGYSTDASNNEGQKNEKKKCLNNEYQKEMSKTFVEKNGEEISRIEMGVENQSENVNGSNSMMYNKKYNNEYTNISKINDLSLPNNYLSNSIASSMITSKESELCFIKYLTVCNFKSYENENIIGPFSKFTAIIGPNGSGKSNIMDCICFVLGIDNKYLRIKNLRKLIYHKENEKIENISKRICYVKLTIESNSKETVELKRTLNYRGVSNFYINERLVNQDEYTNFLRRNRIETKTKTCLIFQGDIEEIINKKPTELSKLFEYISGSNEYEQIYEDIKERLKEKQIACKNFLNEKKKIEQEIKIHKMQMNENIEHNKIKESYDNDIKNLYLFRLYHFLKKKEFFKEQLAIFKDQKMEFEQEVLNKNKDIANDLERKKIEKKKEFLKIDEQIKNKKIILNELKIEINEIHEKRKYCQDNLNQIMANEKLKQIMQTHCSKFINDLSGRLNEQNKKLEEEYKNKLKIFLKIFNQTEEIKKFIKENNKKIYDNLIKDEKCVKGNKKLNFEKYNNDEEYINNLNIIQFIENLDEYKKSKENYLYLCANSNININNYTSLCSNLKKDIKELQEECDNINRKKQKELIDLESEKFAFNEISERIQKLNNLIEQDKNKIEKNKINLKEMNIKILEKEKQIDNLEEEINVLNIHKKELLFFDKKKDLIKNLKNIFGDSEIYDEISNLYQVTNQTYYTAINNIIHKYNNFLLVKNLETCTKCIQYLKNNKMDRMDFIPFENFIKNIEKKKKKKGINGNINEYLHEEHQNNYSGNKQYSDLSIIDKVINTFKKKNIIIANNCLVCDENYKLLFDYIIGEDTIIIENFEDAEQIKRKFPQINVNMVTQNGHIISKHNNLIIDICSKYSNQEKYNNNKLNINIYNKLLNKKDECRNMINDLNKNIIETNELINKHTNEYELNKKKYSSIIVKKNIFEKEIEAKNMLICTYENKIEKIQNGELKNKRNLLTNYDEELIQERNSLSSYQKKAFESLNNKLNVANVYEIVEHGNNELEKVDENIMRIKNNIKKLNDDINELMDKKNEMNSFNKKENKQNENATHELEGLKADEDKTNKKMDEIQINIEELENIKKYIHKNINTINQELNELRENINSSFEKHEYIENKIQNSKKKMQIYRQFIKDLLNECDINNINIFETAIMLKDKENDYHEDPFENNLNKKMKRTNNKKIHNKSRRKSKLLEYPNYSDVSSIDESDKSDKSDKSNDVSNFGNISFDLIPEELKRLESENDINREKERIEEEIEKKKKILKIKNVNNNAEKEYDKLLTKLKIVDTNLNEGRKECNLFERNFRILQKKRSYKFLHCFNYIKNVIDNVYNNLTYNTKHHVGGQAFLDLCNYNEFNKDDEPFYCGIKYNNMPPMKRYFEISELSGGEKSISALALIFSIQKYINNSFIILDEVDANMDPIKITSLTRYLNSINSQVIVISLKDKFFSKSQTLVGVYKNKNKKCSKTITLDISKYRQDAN

What was measured:
Assay in all cases: affinity purification with mass spectrometry; GFP-Trap_A beads on lysates of male gametocytes 6 min post-activation, cross-linked with 1% formaldehyde before lysis; lysis buffer 10 mM Tris-HCl pH 7.5, 150 mM NaCl, 0.5 mM EDTA, 0.5% Nonidet P-40 Substitute; 2 h at 4°C; on-bead trypsin digest, LC-MS/MS; three biological replicates; hits absent from the WT-GFP control
[1] = target: MAP2-GFP (mitogen-activated protein kinase-2 with C-terminal GFP) (P. berghei)
[2] = target: T1, CDPK4-GFP (calcium-dependent protein kinase-4 with C-terminal GFP) (P. berghei) (UniProt P62345)
T1 sequence: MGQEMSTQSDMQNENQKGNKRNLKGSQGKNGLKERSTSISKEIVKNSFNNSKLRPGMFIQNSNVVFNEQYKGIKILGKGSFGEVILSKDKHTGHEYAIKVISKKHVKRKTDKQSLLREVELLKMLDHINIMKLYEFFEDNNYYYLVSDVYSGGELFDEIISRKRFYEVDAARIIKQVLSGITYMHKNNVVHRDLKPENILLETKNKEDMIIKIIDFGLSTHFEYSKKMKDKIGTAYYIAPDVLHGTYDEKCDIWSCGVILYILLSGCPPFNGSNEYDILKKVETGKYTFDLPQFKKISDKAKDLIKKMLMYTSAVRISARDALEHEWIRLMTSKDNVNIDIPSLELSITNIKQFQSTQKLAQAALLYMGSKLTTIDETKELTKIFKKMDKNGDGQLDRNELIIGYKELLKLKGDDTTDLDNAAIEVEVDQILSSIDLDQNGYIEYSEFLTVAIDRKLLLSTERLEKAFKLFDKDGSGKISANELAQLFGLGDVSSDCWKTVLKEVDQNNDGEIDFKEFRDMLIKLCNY

[3] = target: SRPK1-GFP (serine/arginine-rich protein kinase with C-terminal GFP) (P. berghei)

| Substance | binding [1] | binding [2] | binding [3] |
| --- | --- | --- | --- |
| Kinesin-15, putative (from UniProt A0A509AVN2) | binds | – | – |
| Serine/threonine protein phosphatase 5 (from UniProt A0A509AMH5) (enzyme) | – | binds | – |
| Eukaryotic translation initiation factor 3 subunit G, putative (from UniProt A0A509AMU8) | – | – | binds |
| DNA replication licensing factor MCM4, putative (from UniProt A0A509AQA8) | binds | no binding | binds |
| Origin recognition complex subunit 2, putative (from UniProt A0A509AIK1) | – | binds | – |
| Armadillo repeat protein PF16 (from UniProt A0A509AJN7) | binds | – | binds |
| catalytic subunit of DNA polymerase epsilon (P. berghei (endogenous in gametocytes)) (enzyme) | – | binds | – |
| Protein phosphatase PPM11, putative (from UniProt A0A509AJ02) (enzyme) | binds | binds | – |
| ORC3 domain-containing protein, putative (from UniProt A0A509AGM7) | – | binds | – |
| Origin recognition complex subunit 5, putative (from UniProt A0A509ADH7) | binds | binds | – |
| Centrin-2, putative (from UniProt A0A509APL0) | – | – | binds |
| DNA replication licensing factor MCM6, putative (from UniProt A0A509AKY6) | binds | no binding | – |
| Origin recognition complex subunit 4, putative (from UniProt A0A509ASS0) | – | binds | – |
| Kinesin-13, putative (from UniProt A0A509AU53) | binds | binds | – |
| Structural maintenance of chromosomes protein 2 (from UniProt A0A509AU41) | binds | binds | – |
| Origin recognition complex subunit 1, putative (from UniProt A0A509AH43) | – | binds | – |
| Serine/threonine protein kinase, putative (SRPK1) (from UniProt A0A509ADR3) (enzyme) | – | binds | – |
| Kinesin-8B, putative (from UniProt A0A509AB64) | binds | – | – |
| DNA replication licensing factor MCM7, putative (from UniProt A0A509AJ17) | binds | no binding | binds |
| Heat shock protein 70 (from UniProt Q8WT39 1-692) | – | – | binds |
| DNA replication licensing factor MCM2, putative (from UniProt A0A509AJY2) | – | no binding | binds |
| Eukaryotic translation initiation factor 3 subunit E, putative (from UniProt A0A509ANV0) | – | binds | – |
| Structural maintenance of chromosomes protein 4 (from UniProt A0A509ALR5) | binds | binds | – |
| DNA replication licensing factor MCM5, putative (from UniProt A0A509AH12) | binds | no binding | – |
| Eukaryotic translation initiation factor 3 subunit I, putative (from UniProt A0A509AJ64) | – | – | binds |
| Structural maintenance of chromosomes protein 1, putative (from UniProt A0A509APU6) | binds | – | binds |
| DNA replication licensing factor MCM3, putative (from UniProt A0A509ANU0) | binds | no binding | – |
| catalytic subunit of DNA polymerase alpha (P. berghei (endogenous in gametocytes)) (enzyme) | – | binds | – |
| Structural maintenance of chromosomes protein 3, putative (from UniProt A0A509AJX0) | binds | – | binds |
